US4766114A, “Tricyclic compound called 5-((3-chloro-6-methyl-5,5-dioxo-6,11-dihydro-dibenzo (c,f) (1,2)thiazepin-11-yl)-amino) pentanoic acid” (ADIR Et Compagnie, priority 1986, dated 1988)

Legend:
[1] = tested on: tetrabenazine-induced ptosis in the mouse; assay: Effects on tetrabenazine-induced ptosis in the mouse; assay type: in vivo, mouse (male CD); conditions: 25 mg.kg^-1 IP
Method: Male CD mice (Charles River), of average weight 23 g, were distributed in groups of 12 animals. […] The dose of products tested was 25 mg.kg^-1. The animals were observed individually 5, 25, 35 and 55 minutes after the injection of the tetrabenazine and the intensity of the ptosis was evaluated using a 0 to 4 rating scale.

[2] = tested on: aggressivity of isolated mice; assay: Effects on the aggressivity of isolated mice; assay type: in vivo, mouse (male CD); conditions: 10 mg.kg^-1 IP, 30 minutes before test; 3 minute test; water controls 6.7 ± 4.7 (ATAH), 5.4 ± 2.8 (formula I)
Method: The male CD mice (Charles RIVER) used in this study were housed in small (18×10×10 cm) individual cages with the walls painted black, with one mouse per cage, for several months, at a constant temperature of 21° C. and in a light-darkness cycle of 12 hours. The average weight of the mice at the time of the study was 45 g.
Each experimental group comprised 10 couples of mice previously selected for their aggressivity. The aggressivity test was carried out on non-fasting animals. The "intruding" mouse of each couple was placed in the cage containing the other mouse for a 3 minute period.
The product was administered by the intraperitoneal route, 30 minutes before the test.

[3] = tested on: reserpine-induced ptosis in the mouse; assay: Effects on reserpine-induced ptosis in the mouse; assay type: in vivo, mouse (male NMRI); conditions: 25 mg.kg^-1 IP, reserpine 2 mg.kg^-1 IV
Method: This experiment was carried out on groups of 20 male NMRI mice (IFFA-CREDO), with an average weight of 20±2 g. […] GOURET et al., in J. Pharmacol., 1977, 8, (3) p. 333-350.
One hour after the injection of the reserpine, the animals were placed on a 5 cm×5 cm square, wood platform for 20 seconds. Ptosis was considered to be positive if the animal's eyes remained shut during the 20 seconds after it was placed on the platform. On the other hand, the animal was considered to be protected if the eyes were not completely closed during the 20 seconds following the moment when it was placed on the platform.

[4] = tested on: reserpine-induced hypothermia in the mouse; assay: Effects on reserpine-induced hypothermia in the mouse; assay type: in vivo, mouse (NMRI); conditions: 50 mg.kg^-1 IP; rectal temperature 4 hours after reserpine 2 mg.kg^-1 IP; controls 24.7 ± 0.88
Method: This study was carried out on experimental groups of 10 NMRI mice (IFFA-CREDO) fasted for 18 hours. […] One hour later, all the animals were given an intraperitoneal injection of 2 mg.kg^-1 of reserpine. Hypothermia was evaluated 4 hours after the injection of reserpine by measuring the rectal temperature using an electric thermometer.

SMILES: CN1c2ccccc2C(NCCCCCCC(=O)O)c2ccc(Cl)cc2S1(=O)=O (centres unmarked) [TAHA, 7-[(3-chloro-6-methyl-5,5-dioxo-6,11-dihydro-dibenzo(c,f)(1,2)thiazepin-11-yl)-amino]heptanoic acid, reference compound]
- % controls (% change of the mean ptosis scores in comparison with the controls), 5 MINUTES ([1]; 5 minutes after tetrabenazine 20 mg.kg^-1): -62.5%
- MEAN VALUE OF THE PTOSIS INTENSITY SCORE ± SD, 5 MINUTES ([1]; 5 minutes after tetrabenazine 20 mg.kg^-1, 0 to 4 scale, controls 1.33 ± 0.65): 0.50 ± 0.52
- % controls (% change of the mean ptosis scores in comparison with the controls), 25 MINUTES ([1]; 25 minutes after tetrabenazine 20 mg.kg^-1): -26%
- MEAN VALUE OF THE PTOSIS INTENSITY SCORE ± SD, 25 MINUTES ([1]; 25 minutes after tetrabenazine 20 mg.kg^-1, 0 to 4 scale, controls 2.58 ± 0.51): 1.92 ± 0.51
- % controls (% change of the mean ptosis scores in comparison with the controls), 35 MINUTES ([1]; 35 minutes after tetrabenazine 20 mg.kg^-1): -21%
- MEAN VALUE OF THE PTOSIS INTENSITY SCORE ± SD, 35 MINUTES ([1]; 35 minutes after tetrabenazine 20 mg.kg^-1, 0 to 4 scale, controls 2.83 ± 0.58): 2.25 ± 0.45
- MEAN VALUE OF THE PTOSIS INTENSITY SCORE ± SD, 55 MINUTES ([1]; 55 minutes after tetrabenazine 20 mg.kg^-1, 0 to 4 scale, controls 3.08 ± 0.51): 2.58 ± 0.51
- MEAN NUMBER OF ATTACKS ± SD [2]: 7.2 ± 4.6
- antagonism of reserpine-induced ptosis (in words) [3]: slightly antagonised
- animals protected from ptosis ([3]; 20 male NMRI mice per group): 32%
- FINAL TE[…] ± SD [4]: 27.1 ± 1.40
